PubChem BioAssay AID1159595, NIAID – 2016
Assay: 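Contribution of 126 core TLR signalling genes to the Pam3CSK4 inflammatory response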 (primary screen). System: mouse RAW264.7 macrophage reporter cells. Reagent: single siRNA against mouse genes. Duration: assayed 48 to 72 hours after siRNA transfection; ligand applied for 16 hours. Treatment: Pam3CSK4 (TLR2 ligand) for 16 hours before fixation; dose not given. Measurement: 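Nuclear mCherry from a Tnf promoter reporter imaged after 16 h Pam3CSK4, 48–72 h post-transfection; background subtracted, plate median/MAD normalised, robust z-scores averaged over replicates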. Scale: Tnf reporter z-score (replicate mean): higher = stronger Tnf promoter reporter signal than negative control wells. Call rule: 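An siRNA is active when its replicate-mean z-score is -1.5 or lower or 1.5 or higher (activity score at least 50); activity graded at absolute z 1, 1.5, 2 and 2.5; calls apply to single siRNAs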. Calls: active = strong change (up or down); inactive = little change.
The deposit covers 756 reagents; shown is a part drawn at random. Over the whole deposit, 115 (15%) are marked active. 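Active calls cover both lowered and raised reporter signal; each score refers to one siRNA rather than a whole gene.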 The numbers tell different reagents against one gene apart. Not given: the amount of reagent.

gene knocked down,siRNA no.,Tnf reporter z-score (replicate mean),activity call
Rela,1,-0.894,inactive
Rela,2,0.275,inactive
Rela,3,-1.28,inactive
Rela,4,-2.23,active
Rela,5,-1.13,inactive
Rela,6,-1.42,inactive
Dusp2,1,-0.599,inactive
Dusp2,2,-2.03,active
Dusp2,3,2.8,active
Dusp2,4,0.837,inactive
Dusp2,5,-0.294,inactive
Dusp2,6,-0.441,inactive
Atf2,1,-1.51,active
Atf2,2,-0.865,inactive
Atf2,3,-0.409,inactive
Atf2,4,1.6,active
Atf2,5,-1.35,inactive
Atf2,6,-0.518,inactive
Fos,1,-1.97,active
Fos,2,-0.405,inactive
Fos,3,0.895,inactive
Fos,4,-0.297,inactive
Fos,5,-0.766,inactive
Fos,6,0.0851,inactive

Laid out differently: 5 of the entries above
{"gene knocked down":"Rela","siRNA no.":1,"Tnf reporter z-score (replicate mean)":-0.894,"activity call":"inactive"}
{"gene knocked down":"Rela","siRNA no.":2,"Tnf reporter z-score (replicate mean)":0.275,"activity call":"inactive"}
{"gene knocked down":"Rela","siRNA no.":3,"Tnf reporter z-score (replicate mean)":-1.28,"activity call":"inactive"}
{"gene knocked down":"Rela","siRNA no.":4,"Tnf reporter z-score (replicate mean)":-2.23,"activity call":"active"}
{"gene knocked down":"Rela","siRNA no.":5,"Tnf reporter z-score (replicate mean)":-1.13,"activity call":"inactive"}

The list goes on:
gene knocked down,siRNA no.,Tnf reporter z-score (replicate mean),activity call
Mapk11,1,0.648,inactive
Mapk11,2,-0.295,inactive
Mapk11,3,0.0255,inactive
Mapk11,4,-0.335,inactive
Mapk11,5,-1.18,inactive
Mapk11,6,0.164,inactive
Nfkb1,1,-0.19,inactive
Nfkb1,2,-1.8,active
Nfkb1,3,-0.222,inactive
Nfkb1,4,-1.31,inactive
Nfkb1,5,-1.67,active
Nfkb1,6,-1.04,inactive
Crebbp,1,0.734,inactive
Crebbp,2,-1.59,active
Crebbp,3,-1.11,inactive
Crebbp,4,-0.535,inactive
Crebbp,5,-3.16,active
Crebbp,6,-1.32,inactive
Ripk1,1,-1.57,active
Ripk1,2,-0.417,inactive
Ripk1,3,1.12,inactive
Ripk1,4,1.2,inactive
Ripk1,5,-0.532,inactive
Ripk1,6,2.22,active
Il12b,1,-1.59,active
Il12b,2,-0.395,inactive
Il12b,3,-0.633,inactive
Il12b,4,1.01,inactive
Il12b,5,-1.51,active
Il12b,6,0.154,inactive
